Laboratory results taken from paper PMC10851022.
These are yes or no findings as the source states them, for the method shown. Binding seen in cells or lysates may run through a third protein. Some binding calls cover weakened binding; strength is not graded here.

By UniProt entry, the sequences of proteins in these tests, tags left out.
UniProt Q07157: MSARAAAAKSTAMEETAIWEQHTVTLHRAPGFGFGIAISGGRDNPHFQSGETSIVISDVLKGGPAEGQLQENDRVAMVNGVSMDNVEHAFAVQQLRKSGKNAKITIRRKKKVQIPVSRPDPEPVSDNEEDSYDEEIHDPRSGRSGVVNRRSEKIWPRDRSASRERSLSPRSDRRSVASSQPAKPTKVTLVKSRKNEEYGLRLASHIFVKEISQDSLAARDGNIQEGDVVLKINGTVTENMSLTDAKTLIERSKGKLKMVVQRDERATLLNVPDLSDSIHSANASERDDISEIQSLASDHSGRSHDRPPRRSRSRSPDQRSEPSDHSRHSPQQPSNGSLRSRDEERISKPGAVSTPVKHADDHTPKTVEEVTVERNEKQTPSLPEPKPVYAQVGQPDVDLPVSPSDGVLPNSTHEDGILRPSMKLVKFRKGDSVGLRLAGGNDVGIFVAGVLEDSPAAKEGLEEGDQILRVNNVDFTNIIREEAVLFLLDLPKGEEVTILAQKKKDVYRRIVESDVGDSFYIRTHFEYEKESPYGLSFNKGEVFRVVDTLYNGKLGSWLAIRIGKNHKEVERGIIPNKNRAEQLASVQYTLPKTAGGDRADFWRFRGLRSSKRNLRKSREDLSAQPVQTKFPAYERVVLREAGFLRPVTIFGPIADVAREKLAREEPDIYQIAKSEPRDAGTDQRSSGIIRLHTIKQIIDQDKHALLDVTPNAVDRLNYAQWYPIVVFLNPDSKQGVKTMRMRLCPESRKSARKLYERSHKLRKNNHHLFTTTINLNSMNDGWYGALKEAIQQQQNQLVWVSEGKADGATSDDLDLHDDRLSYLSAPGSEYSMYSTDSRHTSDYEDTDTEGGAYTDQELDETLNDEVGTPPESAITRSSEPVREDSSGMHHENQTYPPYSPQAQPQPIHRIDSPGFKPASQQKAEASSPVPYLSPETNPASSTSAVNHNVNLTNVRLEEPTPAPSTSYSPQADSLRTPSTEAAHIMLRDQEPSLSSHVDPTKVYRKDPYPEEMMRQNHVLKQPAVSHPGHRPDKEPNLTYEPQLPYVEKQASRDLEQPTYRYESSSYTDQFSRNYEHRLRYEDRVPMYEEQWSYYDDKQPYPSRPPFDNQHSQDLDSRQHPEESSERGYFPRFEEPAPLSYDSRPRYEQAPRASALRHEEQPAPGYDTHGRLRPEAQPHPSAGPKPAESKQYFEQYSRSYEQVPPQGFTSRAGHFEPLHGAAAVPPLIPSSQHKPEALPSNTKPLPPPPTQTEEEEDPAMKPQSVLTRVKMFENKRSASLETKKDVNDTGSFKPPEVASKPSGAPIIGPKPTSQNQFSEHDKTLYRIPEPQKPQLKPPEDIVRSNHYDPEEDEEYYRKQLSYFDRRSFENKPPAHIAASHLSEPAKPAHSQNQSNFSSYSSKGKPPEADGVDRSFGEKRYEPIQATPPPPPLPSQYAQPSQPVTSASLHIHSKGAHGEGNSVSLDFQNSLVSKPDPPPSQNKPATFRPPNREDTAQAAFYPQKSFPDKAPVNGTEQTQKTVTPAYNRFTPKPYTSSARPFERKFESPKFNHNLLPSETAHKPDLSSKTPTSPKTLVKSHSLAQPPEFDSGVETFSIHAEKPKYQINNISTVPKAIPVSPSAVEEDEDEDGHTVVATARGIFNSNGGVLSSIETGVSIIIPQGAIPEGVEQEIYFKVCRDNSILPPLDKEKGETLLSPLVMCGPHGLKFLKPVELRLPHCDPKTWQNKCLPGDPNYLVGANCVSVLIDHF

Target: T1, nephrin (human (endogenous in conditionally immortalized human podocytes)) (UniProt O60500)
T1 sequence: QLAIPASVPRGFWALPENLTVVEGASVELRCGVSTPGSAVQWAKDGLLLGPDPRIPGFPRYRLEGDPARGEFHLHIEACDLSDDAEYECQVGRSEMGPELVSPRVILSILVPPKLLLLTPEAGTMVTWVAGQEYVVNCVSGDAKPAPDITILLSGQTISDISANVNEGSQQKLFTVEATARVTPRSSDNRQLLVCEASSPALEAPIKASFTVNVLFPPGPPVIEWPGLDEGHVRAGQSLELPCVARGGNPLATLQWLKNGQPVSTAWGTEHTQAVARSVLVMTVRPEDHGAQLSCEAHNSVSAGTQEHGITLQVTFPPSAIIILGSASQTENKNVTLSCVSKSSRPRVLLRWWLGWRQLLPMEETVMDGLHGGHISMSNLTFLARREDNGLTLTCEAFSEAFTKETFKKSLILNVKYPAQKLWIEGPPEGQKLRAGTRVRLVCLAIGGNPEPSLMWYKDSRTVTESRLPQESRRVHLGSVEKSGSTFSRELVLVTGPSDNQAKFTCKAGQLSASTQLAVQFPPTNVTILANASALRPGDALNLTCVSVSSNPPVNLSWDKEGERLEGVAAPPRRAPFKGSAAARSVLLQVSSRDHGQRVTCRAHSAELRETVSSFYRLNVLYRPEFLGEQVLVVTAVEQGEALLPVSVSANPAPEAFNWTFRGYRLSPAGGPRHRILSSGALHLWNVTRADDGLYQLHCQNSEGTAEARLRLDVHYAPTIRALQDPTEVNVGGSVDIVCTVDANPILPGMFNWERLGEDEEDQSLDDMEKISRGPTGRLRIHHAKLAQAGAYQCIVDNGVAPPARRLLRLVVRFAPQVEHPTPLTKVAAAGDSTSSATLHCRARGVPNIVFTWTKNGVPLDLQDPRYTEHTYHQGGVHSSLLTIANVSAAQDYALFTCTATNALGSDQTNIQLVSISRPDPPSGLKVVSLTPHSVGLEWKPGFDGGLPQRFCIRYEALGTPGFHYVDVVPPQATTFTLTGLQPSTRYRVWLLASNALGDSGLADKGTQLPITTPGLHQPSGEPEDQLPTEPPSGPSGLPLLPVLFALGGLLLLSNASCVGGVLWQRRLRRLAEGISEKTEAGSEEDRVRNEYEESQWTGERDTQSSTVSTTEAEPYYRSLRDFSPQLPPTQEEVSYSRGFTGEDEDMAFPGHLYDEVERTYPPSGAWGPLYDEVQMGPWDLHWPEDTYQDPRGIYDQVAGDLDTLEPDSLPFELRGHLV
Assay: co-IP; 0.5 mg podocyte lysate protein (modified radioimmunoprecipitation assay buffer) incubated with 1 ug anti-nephrin antibody at 4 °C overnight, immunoblot for ZO-1 or podocin; cells untreated or treated 48 hours with H2O2 (200 uM) or dynasore (150 uM), with or without catalase (0.5 uM): association reduced by H2O2 or dynasore, restored by catalase

With ZO-1 (from UniProt Q07157 1-1748) the binding was “binds”.
